Laboratory results from article PMC7192597, “Mechanistic insights from structure of Mycobacterium smegmatis topoisomerase I with ssDNA bound to both N- and C-terminal domains”.
These are yes or no findings as the source states them, for the method shown. Sequences can lack the tags named with a protein.

Target: Mycobacterium smegmatis topoisomerase I, 839-residue C-terminally truncated form (MsmTOP1-839t) (M. smegmatis strain mc2 155) (UniProt A0R5D9)
Experiment: SAXS; solution small-angle X-ray scattering in a flow cell; MsmTOP1-839t alone and in complex with ssDNA MTS2-25; 1.0, 2.0 and 5.0 mg/ml, extrapolated to zero concentration; both purified

B1: Mycobacterium smegmatis topoisomerase I, 839-residue C-terminally truncated form (MsmTOP1-839t) (enzyme, UniProt A0R5D9 1-839)
chain: SNAMAGGDRGSGGTGNVRRLVIVESPTKARKIAGYLGSNYVVESSRGHIRDLPRNAADVPAKFKSEPWARLGVNVDQNFEPLYIVSPEKKSTVTELKGLLKDVDELYLATDGDREGEAIAWHLLETLKPRVPVKRMVFHEITEPAIRNAAENPRDLDIALVDAQETRRILDRLYGYEVSPVLWKKVAPKLSAGRVQSVATRIIVQRERERMAFHSASYWDVTAELDASVSDPSASPPKFTAKLNTVDGRRVATGRDFDSLGQLKRPDEVLVLDEASAGALASGLRGAQLAVTSVEQKPYTRRPYAPFMTSTLQQEAARKLRFSSERTMSIAQRLYENGYITYMRTDSTTLSESAINAARTQARQLYGEEYVHPSPRQYTRKVKNAQEAHEAIRPAGDVFQTPGQLHSALDTDEFRLYELIWQRTVASQMADARGTTLSLRIGGSASSGEQVVFNASGRTITFPGFLKAYVESIDELAGGESDDAESRLPNLTQGQRVDAADLSADGHQTSPPARYTEASLIKALEELGIGRPSTYSSIIKTIQDRGYVQKKGSALVPSWVAFAVVGLLEQHFGRLVDYDFTAAMEDELDEIANGQEQRTNWLNNFYFGGEHGVEGSIARAGGLKQLVGGNLEGIDAREVNSIKVFDDSEGRPVYVRVGRNGPYLERMVDDPDNPGEQKPQRANLKEDLTPDELTPELAEKLFATPQEGRSLGIDPETGHEIVAKDGRFGPYVTEVLPEPEDGGDDGTAGTPAKKGKKPTGPKPRTGSLFRSMDLETVTLEDALKLLSLPRVVGVDPTTNEEITAQNGRYGPYLKRGTDSRSLATEDQIFTITLDEALKIYAE
binding: no binding (tested: 1.0, 2.0 and 5.0 mg/ml)
